Reference: the supplement of paper PMC10849652
The list shows a part of the results.

By UniProt entry, the sequences of proteins in these tests, tags left out. Where a name states a change or a piece, a line headed by the entry shows the natural chain unless it says otherwise.
UniProt Q53EU6: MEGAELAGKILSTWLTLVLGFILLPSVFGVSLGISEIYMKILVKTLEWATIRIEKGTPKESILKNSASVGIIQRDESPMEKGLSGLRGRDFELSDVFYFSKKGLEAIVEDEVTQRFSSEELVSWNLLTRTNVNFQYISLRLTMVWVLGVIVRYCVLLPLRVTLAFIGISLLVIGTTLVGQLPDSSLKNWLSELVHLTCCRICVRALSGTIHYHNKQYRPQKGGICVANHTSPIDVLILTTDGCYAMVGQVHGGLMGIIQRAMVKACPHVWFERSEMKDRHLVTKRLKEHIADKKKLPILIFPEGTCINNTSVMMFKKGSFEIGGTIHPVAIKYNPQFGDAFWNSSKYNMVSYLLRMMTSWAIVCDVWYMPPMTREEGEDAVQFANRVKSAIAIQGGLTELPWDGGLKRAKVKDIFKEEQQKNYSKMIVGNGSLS
UniProt P32189: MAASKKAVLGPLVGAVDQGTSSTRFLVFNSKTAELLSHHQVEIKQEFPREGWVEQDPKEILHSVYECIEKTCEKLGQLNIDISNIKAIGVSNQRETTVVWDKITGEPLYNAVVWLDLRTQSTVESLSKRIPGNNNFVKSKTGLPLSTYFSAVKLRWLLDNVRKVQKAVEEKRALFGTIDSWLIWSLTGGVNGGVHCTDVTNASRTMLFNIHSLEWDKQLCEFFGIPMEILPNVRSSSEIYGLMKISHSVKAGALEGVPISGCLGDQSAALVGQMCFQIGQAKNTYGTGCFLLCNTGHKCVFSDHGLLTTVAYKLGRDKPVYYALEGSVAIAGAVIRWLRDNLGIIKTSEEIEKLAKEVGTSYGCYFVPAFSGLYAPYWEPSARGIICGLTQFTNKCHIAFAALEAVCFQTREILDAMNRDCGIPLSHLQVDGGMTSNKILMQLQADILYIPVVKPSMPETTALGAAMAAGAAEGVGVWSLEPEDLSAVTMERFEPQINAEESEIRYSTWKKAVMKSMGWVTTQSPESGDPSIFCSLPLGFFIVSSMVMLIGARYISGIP
UniProt Q92917: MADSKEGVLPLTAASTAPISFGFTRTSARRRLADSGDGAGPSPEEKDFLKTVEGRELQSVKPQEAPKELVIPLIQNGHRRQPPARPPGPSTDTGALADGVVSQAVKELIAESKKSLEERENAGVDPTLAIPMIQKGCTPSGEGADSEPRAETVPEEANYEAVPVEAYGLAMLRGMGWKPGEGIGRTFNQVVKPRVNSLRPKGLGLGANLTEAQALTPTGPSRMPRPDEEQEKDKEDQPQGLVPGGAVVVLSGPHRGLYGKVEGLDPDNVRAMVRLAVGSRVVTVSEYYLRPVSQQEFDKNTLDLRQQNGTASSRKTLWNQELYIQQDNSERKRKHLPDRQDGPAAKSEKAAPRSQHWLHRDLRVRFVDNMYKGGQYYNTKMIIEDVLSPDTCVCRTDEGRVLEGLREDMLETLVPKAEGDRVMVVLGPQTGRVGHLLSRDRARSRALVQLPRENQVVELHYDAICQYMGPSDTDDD
UniProt Q8IXQ4: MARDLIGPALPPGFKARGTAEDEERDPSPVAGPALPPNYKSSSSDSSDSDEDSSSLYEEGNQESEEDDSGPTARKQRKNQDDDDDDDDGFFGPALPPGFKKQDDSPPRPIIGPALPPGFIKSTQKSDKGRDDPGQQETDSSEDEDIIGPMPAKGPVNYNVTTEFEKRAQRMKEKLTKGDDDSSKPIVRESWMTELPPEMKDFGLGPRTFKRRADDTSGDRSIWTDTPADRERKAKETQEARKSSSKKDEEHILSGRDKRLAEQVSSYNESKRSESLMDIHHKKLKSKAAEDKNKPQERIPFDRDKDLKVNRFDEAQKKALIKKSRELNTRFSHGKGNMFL
UniProt Q9NQX3: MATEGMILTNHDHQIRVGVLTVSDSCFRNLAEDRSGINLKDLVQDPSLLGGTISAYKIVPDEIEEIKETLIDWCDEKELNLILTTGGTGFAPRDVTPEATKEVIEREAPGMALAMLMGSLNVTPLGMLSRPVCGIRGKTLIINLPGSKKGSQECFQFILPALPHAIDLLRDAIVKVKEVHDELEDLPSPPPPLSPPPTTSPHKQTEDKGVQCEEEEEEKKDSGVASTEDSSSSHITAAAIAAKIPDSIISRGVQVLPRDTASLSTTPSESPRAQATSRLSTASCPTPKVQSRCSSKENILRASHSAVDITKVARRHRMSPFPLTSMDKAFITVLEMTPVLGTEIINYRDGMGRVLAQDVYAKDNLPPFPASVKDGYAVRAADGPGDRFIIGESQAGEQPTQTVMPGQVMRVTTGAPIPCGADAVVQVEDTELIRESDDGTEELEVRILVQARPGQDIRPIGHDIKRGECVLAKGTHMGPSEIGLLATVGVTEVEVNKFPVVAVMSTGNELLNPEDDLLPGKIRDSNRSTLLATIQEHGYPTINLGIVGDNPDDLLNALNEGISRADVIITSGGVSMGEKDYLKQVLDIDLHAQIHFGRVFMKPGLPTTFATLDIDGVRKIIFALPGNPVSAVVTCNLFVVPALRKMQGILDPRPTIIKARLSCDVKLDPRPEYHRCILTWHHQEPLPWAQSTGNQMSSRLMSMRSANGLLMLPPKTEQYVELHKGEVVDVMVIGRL
UniProt Q86UL3: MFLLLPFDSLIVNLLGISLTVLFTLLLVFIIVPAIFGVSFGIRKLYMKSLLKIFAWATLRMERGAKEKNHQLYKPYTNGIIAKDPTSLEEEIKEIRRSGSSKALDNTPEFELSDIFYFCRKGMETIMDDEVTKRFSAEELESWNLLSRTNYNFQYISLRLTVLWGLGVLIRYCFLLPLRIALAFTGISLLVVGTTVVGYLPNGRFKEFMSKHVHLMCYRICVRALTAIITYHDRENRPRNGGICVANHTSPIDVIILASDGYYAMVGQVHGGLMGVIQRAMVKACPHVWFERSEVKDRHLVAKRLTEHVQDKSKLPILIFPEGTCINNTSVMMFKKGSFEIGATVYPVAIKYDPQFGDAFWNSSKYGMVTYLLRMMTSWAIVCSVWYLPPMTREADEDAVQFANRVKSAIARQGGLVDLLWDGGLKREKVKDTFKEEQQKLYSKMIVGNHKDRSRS
UniProt O14908: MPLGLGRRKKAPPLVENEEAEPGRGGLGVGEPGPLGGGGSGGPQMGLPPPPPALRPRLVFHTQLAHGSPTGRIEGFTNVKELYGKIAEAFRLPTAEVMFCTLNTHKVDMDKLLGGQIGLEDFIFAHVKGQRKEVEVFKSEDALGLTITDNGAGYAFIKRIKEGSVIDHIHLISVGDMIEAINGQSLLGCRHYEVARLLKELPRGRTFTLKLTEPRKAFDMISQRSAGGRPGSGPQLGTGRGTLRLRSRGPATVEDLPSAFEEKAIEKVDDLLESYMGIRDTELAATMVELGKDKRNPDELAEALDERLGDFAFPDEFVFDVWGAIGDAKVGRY
UniProt O75496: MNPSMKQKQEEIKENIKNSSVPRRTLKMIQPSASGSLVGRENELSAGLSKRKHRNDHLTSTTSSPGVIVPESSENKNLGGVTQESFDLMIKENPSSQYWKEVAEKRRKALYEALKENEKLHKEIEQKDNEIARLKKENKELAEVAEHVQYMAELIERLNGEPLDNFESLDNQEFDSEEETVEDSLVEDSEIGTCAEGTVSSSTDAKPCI
UniProt O60547: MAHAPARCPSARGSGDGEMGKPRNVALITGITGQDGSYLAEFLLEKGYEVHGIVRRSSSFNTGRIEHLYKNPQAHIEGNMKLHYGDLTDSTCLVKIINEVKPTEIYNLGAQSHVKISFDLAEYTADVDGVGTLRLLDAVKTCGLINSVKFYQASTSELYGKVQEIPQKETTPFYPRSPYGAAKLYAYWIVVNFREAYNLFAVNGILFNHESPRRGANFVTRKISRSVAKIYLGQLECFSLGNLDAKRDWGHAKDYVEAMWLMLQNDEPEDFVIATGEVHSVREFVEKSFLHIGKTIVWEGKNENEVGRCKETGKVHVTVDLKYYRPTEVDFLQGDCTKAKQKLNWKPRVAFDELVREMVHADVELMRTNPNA
UniProt Q13098: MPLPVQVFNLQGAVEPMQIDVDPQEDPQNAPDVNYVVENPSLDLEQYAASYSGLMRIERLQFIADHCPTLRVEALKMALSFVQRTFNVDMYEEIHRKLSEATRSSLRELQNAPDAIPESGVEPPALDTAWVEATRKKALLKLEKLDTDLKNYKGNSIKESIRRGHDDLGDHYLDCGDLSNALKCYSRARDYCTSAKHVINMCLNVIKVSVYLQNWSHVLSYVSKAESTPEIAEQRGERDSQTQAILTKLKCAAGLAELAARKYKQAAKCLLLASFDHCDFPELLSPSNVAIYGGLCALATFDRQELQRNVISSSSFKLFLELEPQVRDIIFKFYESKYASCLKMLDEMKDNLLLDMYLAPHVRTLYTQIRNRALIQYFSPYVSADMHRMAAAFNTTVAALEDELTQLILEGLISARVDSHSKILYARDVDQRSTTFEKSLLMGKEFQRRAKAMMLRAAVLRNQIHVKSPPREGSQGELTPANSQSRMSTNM
UniProt P17900: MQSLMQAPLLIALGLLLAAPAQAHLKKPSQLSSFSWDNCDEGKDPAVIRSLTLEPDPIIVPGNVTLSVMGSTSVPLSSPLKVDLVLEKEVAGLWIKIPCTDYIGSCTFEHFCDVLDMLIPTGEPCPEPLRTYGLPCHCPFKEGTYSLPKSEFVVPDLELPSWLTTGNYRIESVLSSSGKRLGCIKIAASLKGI
UniProt Q86SX6: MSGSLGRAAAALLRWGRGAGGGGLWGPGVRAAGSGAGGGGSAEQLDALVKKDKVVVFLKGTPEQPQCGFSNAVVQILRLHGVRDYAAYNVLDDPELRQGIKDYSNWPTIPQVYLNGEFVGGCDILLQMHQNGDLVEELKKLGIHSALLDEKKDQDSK
UniProt Q96EK6: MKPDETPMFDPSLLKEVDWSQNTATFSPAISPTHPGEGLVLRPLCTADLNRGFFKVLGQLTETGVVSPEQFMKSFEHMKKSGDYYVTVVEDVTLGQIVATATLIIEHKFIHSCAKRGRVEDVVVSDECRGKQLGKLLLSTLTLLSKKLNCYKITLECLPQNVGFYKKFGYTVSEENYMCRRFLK
UniProt Q9HC38: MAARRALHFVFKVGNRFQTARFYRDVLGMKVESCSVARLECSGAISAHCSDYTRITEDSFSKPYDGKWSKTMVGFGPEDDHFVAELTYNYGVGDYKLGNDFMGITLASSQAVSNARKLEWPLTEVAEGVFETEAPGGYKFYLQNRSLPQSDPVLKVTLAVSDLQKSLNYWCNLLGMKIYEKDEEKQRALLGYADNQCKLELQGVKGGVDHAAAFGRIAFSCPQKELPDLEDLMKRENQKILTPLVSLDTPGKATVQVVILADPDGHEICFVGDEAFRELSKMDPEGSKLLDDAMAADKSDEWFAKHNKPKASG
UniProt Q9UHW5, whole entry, looked up: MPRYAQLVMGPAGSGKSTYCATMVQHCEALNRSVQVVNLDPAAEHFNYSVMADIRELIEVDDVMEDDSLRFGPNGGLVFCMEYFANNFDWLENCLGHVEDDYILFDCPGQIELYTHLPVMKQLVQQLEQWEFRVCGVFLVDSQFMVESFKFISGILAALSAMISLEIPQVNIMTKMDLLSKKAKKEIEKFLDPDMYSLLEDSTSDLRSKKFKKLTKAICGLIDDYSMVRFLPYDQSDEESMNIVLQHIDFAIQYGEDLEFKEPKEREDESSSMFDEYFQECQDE
UniProt Q9P2T1: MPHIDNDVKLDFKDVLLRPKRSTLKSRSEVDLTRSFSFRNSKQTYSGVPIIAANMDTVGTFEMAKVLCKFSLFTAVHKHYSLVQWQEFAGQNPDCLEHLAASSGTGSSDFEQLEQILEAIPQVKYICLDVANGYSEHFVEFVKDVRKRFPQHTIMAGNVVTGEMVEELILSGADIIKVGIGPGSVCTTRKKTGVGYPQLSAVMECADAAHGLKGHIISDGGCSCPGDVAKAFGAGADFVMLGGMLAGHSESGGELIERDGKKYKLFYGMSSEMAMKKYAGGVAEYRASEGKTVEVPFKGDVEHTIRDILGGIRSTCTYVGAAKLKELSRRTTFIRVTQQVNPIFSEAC
UniProt Q12849: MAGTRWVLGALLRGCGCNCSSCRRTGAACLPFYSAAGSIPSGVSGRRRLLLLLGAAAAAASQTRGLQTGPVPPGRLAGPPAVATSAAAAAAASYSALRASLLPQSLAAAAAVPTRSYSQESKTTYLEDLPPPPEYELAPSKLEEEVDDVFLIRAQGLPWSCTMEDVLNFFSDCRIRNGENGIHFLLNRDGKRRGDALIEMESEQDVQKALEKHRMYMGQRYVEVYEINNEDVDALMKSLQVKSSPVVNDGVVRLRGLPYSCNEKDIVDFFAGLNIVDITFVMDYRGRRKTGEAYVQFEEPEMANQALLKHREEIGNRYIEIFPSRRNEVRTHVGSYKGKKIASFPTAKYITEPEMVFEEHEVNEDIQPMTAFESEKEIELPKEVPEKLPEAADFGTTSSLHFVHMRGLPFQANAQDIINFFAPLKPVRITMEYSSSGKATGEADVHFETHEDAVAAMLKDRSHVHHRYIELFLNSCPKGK
UniProt P62993, whole entry, looked up: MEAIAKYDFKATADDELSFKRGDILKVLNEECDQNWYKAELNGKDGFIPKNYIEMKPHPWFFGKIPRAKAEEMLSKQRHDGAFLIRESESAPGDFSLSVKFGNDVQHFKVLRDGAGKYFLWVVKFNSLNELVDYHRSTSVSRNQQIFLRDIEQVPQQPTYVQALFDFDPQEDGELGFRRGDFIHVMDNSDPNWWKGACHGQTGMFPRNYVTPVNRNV

Compound: CCCS(=O)(=O)Nc1ccc(F)c(C(=O)c2c[nH]c3ncc(-c4ccc(Cl)cc4)cc23)c1F [vemurafenib]
Test: log2 fold change, soluble protein after heating vs DMSO (PISA); higher = thermal stabilisation; K562 cells, 10 uM, 30 min; active = over 0.2 and 3.5 SD of the protein, either way, in both replicates (recomputed)
Summary of the method: (§1)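 K562 cells (2×10^6 cells/mL) were treated with 10 μM compound for 30 min, and aliquots were heated for 3 min over 48°C-58°C. Pooled aliquots were extracted in PBS with 0.5% NP-40 at 4°C, and the supernatant after 21,000xg for 90 min was measured by TMTpro 16plex LC-MS/MS with channel sums equalised. Reported thermal stability, relative to control samples and from duplicates, is a log2 fold change.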

log2 fold change, inactive:
GPAT3 (UniProt Q53EU6) 0.012, GK (UniProt P32189) -0.011, GLYR1 (UniProt Q49A26) 0.054, GPATCH11 (UniProt Q8N954) -0.022, GPKOW (UniProt Q92917) 0.009, GNB1 (UniProt P62873) -0.022, GINS1 (UniProt Q14691) 0.059, GNB2 (UniProt P62879) 0.044, GNAI2 isoform 4 (UniProt P04899) 0.043, GPALPP1 (UniProt Q8IXQ4) -0.045, GMPPB isoform 2 (UniProt Q9Y5P6) 0.034, GNB4 (UniProt Q9HAV0) 0.035, GPHN isoform 2 (UniProt Q9NQX3) 0.006, GNL1 (UniProt P36915) -0.01, GSK3A (UniProt P49840) -0.023, GPAT4 (UniProt Q86UL3) 0.036, GIPC1 (UniProt O14908) 0.056, GNB1L (UniProt Q9BYB4) -0.008, GMNN (UniProt O75496) -0.028, GMDS (UniProt O60547) -0.046, GPS1 isoform 7 (UniProt Q13098) 0.022, GINS4 (UniProt Q9BRT9) 0.072, GM2A (UniProt P17900) -0.02, GLRX5 (UniProt Q86SX6) -0.053, GINS3 (UniProt Q9BRX5) -0.007, GNPDA1 (UniProt P46926) 0, GMEB2 (UniProt Q9UKD1) 0.012, GPN1 isoform 5 (UniProt Q9HCN4) -0.044, GPR89A (UniProt B7ZAQ6) 0.1, GINS2 (UniProt Q9Y248) 0.102, GOLGA5 (UniProt Q8TBA6) 0.005, GNE isoform 2 (UniProt Q9Y223) 0.009, GNPNAT1 (UniProt Q96EK6) -0.011, GLOD4 isoform 2 (UniProt Q9HC38) 0.017, GRHPR (UniProt Q9UBQ7) 0.018, GPN3 isoform 2 (UniProt Q9UHW5) -0.08, GLRX2 isoform 2 (UniProt Q9NS18) 0.037, GMPR2 isoform 2 (UniProt Q9P2T1) -0.03, GRSF1 (UniProt Q12849) 0.005, GRB2 (UniProt P62993) 0.021

Compound: CCCS(=O)(=O)Nc1ccc(F)c(C(=O)c2c[nH]c3ncc(Cl)cc23)c1F
Test: as above
Summary of the method: as §1

log2 fold change, inactive:
GPAT3 (UniProt Q53EU6) 0.005, GK (UniProt P32189) -0.066, GLYR1 (UniProt Q49A26) 0.009, GPATCH11 (UniProt Q8N954) -0.006, GPKOW (UniProt Q92917) 0.07, GNB1 (UniProt P62873) 0.008, GINS1 (UniProt Q14691) 0.113, GNB2 (UniProt P62879) 0.036, GNAI2 isoform 4 (UniProt P04899) 0.021, GPALPP1 (UniProt Q8IXQ4) -0.029, GMPPB isoform 2 (UniProt Q9Y5P6) 0.052, GNB4 (UniProt Q9HAV0) -0.073, GPHN isoform 2 (UniProt Q9NQX3) -0.01, GNL1 (UniProt P36915) 0.081, GSK3A (UniProt P49840) -0.003, GPAT4 (UniProt Q86UL3) 0.027, GIPC1 (UniProt O14908) 0.066, GNB1L (UniProt Q9BYB4) -0.011, GMNN (UniProt O75496) -0.005, GMDS (UniProt O60547) -0.008, GPS1 isoform 7 (UniProt Q13098) 0.044, GINS4 (UniProt Q9BRT9) -0.006, GM2A (UniProt P17900) 0.015, GLRX5 (UniProt Q86SX6) 0.028, GINS3 (UniProt Q9BRX5) 0.004, GNPDA1 (UniProt P46926) -0.008, GMEB2 (UniProt Q9UKD1) 0.041, GPN1 isoform 5 (UniProt Q9HCN4) -0.016, GPR89A (UniProt B7ZAQ6) 0.028, GINS2 (UniProt Q9Y248) 0.029, GOLGA5 (UniProt Q8TBA6) 0.012, GNE isoform 2 (UniProt Q9Y223) 0.003, GNPNAT1 (UniProt Q96EK6) 0, GLOD4 isoform 2 (UniProt Q9HC38) 0.066, GRHPR (UniProt Q9UBQ7) -0.002, GPN3 isoform 2 (UniProt Q9UHW5) -0.016, GLRX2 isoform 2 (UniProt Q9NS18) -0.171, GMPR2 isoform 2 (UniProt Q9P2T1) -0.013, GRSF1 (UniProt Q12849) 0.059, GRB2 (UniProt P62993) 0.002
